PubChem BioAssay AID602196 – INSERM | 2012

Assay: 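Genes whose knock-down alters cisplatin killing of lung cancer cells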
Cell system: human A549 lung cancer cells
Knock-down reagent: siRNA pair against human genes
Timing: 48 h transfection before cisplatin; time from cisplatin to read-out not stated
Conditions: cisplatin at a dose killing half of control-siRNA cells; exact dose and duration not given
Measurement: 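Cisplatin cell death as a shift from the 50% death seen with control siRNA; siRNAs toxic or growth-blocking alone scored 0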
Scale: two-siRNA summed score (-2 to +2): higher = both siRNAs protect from cisplatin killing; -2 means both sensitise; mean protection from cisplatin (shift in death) and protection from cisplatin (shift in death), siRNA C and protection from cisplatin (shift in death), siRNA D: higher = protection from cisplatin killing
Rule for the call: 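siRNAs harmful alone (LDH or WST-1) get 0; others get +1 for less and -1 for more cisplatin killing; genes are active when the two siRNAs give the same sign, summing to ±2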
Meaning of the calls: active = both siRNAs shift cisplatin killing the same way; inactive = no consistent shift, or siRNA harmful alone
Shown is a random part of about 23,000 reagents tested. 455 of all reagents (2%) were called active. 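Active includes both protection and sensitisation; some change values fall well beyond the stated -50 to +50 range.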 Unmarked entries are inactive. The record does not give: the amount of reagent.

Target gene	two-siRNA summed score (-2 to +2)	mean protection from cisplatin (shift in death) (%)	protection from cisplatin (shift in death), siRNA C (%)	protection from cisplatin (shift in death), siRNA D (%)
ANKDD1A	0	13.8	26.3	1.2
KIF5B	0	3.8	12.4	-4.7
LOC285422	0	1.9	7	-3.3
EXPH5	0	0.7	-2.8	4.3
LOC401943	0	3.4	5.5	1.2
MED4	0	14.6	18.3	10.9
SELENOK	0	-0.8	-8.4	6.8
LOC442127	0	0.9	-0.8	2.5
GYS2	1	4.3	-2.6	11.1
MEIOSIN	0	18.5	42	-5
DEF8	0	6.7	6.2	7.2
LOC402574	0	-0.8	-6.5	4.9
LOC284890	0	7.5	10.3	4.8
FSTL5	0	2.2	12.9	-8.5
DUXAP10	0	7.3	-2.3	16.9
B3GALNT2	0	4.1	7.1	1.1
PHF7	0	-19.2	-5.6	-32.7
ZNRF1	0	-0.3	-20	19.4
SLC20A1	1	8.6	17.1	0.1
KIAA0459	0	7.7	8.1	7.4
IL20	0	-3.9	-5.1	-2.7
RNASEH2A	0	-1.1	-3.7	1.4
OR7A10	0	-3.4	13.4	-20.3
LOC121006	1	19.8	11.5	28
NPPC	0	11.7	14.4	9.1
STEAP3	0	4.9	4.3	5.6
TMTC3	0	2.5	-2.3	7.4
ZNF507	1	10.5	14.5	6.4
PRELID3A	0	8.9	10	7.8
RAB25	-1	-11.5	-23	0
LOC441475	0	4.1	12.9	-4.8
SPATC1L	1	9.9	8.2	11.5
CYP24A1	0	2	-6	10
LOC401068 (retired record)	0	17.1	28.1	6
ZNF468	0	0.5	1.7	-0.7
TRAK1	0	2.7	6.9	-1.5
CYP2W1	0	6	22	-10
CCND1	1	28	25.7	30.3
UTS2B	0	0.8	7.7	-6.1
P2RY2	0	10.6	20.4	0.8
LEO1	0	0.9	3.2	-1.5
LOC253584	0	4	-5.9	14
ZNF695	1	4	-6.4	14.4
REDIC1	0	9.3	6.9	11.7
DNAI4	0	0.5	8.7	-7.6
LOC388137	1	13.7	10.4	17.1
IL4R	1	0.9	-13.6	15.5
RP1	0	4.7	-0.5	10
PNMA6A	0	3.6	1.3	6
C1orf216	0	4	3.9	4.2
CBLL1	0	16.4	12.9	19.8
C1QTNF7	0	5.1	5.6	4.6
LOC440432	0	7.6	-2.5	17.7
IQSEC2	0	2.5	-3	8.1
LINC00934	0	14.6	17.6	11.6
LIX1	0	-7.5	-15.3	0.4
ARHGAP25	0	11.1	6	16.2
GMPPA	0	7.7	11.9	3.5
B4GALNT2	0	19.3	17.8	20.8
PLEKHM1	0	14.9	-3.6	33.5
ARID4A	-1	-13.5	-26.4	-0.7
ZNF32	0	-1.5	-8.4	5.3
C1R	0	-3.2	-5.4	-1
LZTS2	0	1	-27.5	29.6
ACTA2	0	1.3	-8.1	10.7
PRKG1	0	-7.3	0.2	-14.8
AKR1C8	1	15.1	6.3	23.8
DENND4B	0	-4.9	-0.8	-8.9
DPF2	0	3.9	12.3	-4.5
PIK3C2G	1	16.3	17.8	14.9
SEH1L	1	7.2	2.1	12.3
COX20	0	4.8	1.9	7.6
TREM1	0	-11.1	-20.8	-1.3

3 successive reagents already listed:
Target gene	two-siRNA summed score (-2 to +2)	mean protection from cisplatin (shift in death) (%)	protection from cisplatin (shift in death), siRNA C (%)	protection from cisplatin (shift in death), siRNA D (%)
B3GALNT2	0	4.1	7.1	1.1
PHF7	0	-19.2	-5.6	-32.7
ZNRF1	0	-0.3	-20	19.4
